# From PubChem BioAssay AID2685 (National Center for Advancing Translational Sciences (NCATS), 2010)
# Among all 320,000 compounds or so, about 2,100 (0.66%) were called active. The shares of active, inactive and inconclusive entries below differ from those in the screen. The call rests on the fitted dose curve; in most records, active means well fitted inhibition curve with a large enough effect in the signal ratio, with a control signal flat (not every such curve was filed as active); inconclusive means small, poorly fitted or top-dose-only effect, or effect the other way, or a change in a side signal; inactive means flat fitted curve, though single readings scatter; the % refers to the signal ratio. Potencies beside an inconclusive call are fits to weak or partial responses and may not hold up.
# Assay: qHTS Assay for Lipid Storage Modulators in Drosophila S3 Cells
# Conditions: BODIPY lipid droplet fluorescence, 18-24 h, cells fed with added oleic acid; lipid storage change, negative = inhibition: at 46.1 µM (top of the series) unless noted
# Method in brief: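 Drosophila S3 cells got compounds at several concentrations plus oleic acid (400 uM solution). Laser-scanning cytometry with 488 nm excitation read lipid droplets at 500-530 nm and cells at 575-640 nm. Percent activity was relative to 20 uM Triacsin C.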
# On the % scale 0 is the no-effect control and ±100 the full control effect; potency means the concentration at half of the fitted maximal effect.
SMILES,"lipid storage change, negative = inhibition",Potency
O=C(Nc1cccc(F)c1)c1sc(Cl)nc1-c1ccccc1,inconclusive: 11.9%,
CC1CC(C)CN(C(=O)C(C)N2CCN(S(=O)(=O)c3cccs3)CC2)C1 (configuration not stated),inconclusive: 21.6%,
O=C(Nc1ccccc1)NC1(C(=O)N2CCN(C(=O)c3ccco3)CC2)CCCCC1,,"inconclusive: 29.1 µM [activator, single point]"
CC(C)(C)c1ccc(OCCNC(=S)Nc2ccccc2)cc1,inconclusive: -98.9%,
Cc1ccc(NC(=S)NC(=O)c2ccccc2)cc1NC(=S)NC(=O)c1ccccc1,inconclusive: 11%,
CCOC(=O)c1csc(NC(=O)c2cccs2)n1,,active: 20.6 µM
Cc1cc(/C=C(\C#N)C(=O)NC2CCCCCC2)c(C)[nH]1,inconclusive: 28.5%,
CC(=O)Nc1ccc(Nc2nc(C)c([N+](=O)[O-])c(N(C)c3ccccc3)n2)cc1,inconclusive: 18.5%,
N[C@H]1C(O)O[C@H](CO)[C@@H](O)[C@@H]1O (some centres not stated),inconclusive: -5.13%,
COc1ccc(CCNC(=O)Cc2ccc(NC3=NC4CS(=O)(=O)CC4S3)cc2)c(OC)c1 (configuration not stated),inconclusive: 17.5%,
Cc1cc([N+](=O)[O-])cc(/C=N\NC(=O)C2COc3ccccc3O2)c1O (configuration not stated),inconclusive: 39.6%,
CCCCCNC1=CC(=O)CC(c2ccccc2)C1 (configuration not stated),inconclusive: -30.5%,
N#Cc1c2ccc(O)cc2n2ccccc12,inconclusive: 16.7%,
O=S(=O)(c1ccccc1)N(Cc1cccc(F)c1)c1ccccc1,,"inconclusive: 29.1 µM [falling, single point]"
CC(C)c1ccc(CC(C)C2C3=C(CCCC3=O)OC3=C2C(=O)CCC3)cc1 (configuration not stated),,"inconclusive: 1.64 µM [rising, partial curve]"
O=C1[C@@H]2C(c3cccnc3)=NO[C@@H]2C(=O)N1c1ccc(Br)cc1,inconclusive: -25.7%,
CCc1c(C)sc(NC(=S)N2CCN(C(=O)C3CCCO3)CC2)c1C(=O)OC (configuration not stated),inactive,
CCNC(=O)CC1C(=O)N(c2ccc(C)cc2)C(=O)N1CCc1ccc(OC)c(OC)c1 (configuration not stated),inconclusive: 28%,
CC(=O)Nc1ccc(NC(=O)CSc2nc(=O)n3cccc(C)c3n2)cc1,inconclusive: 19%,
CC(=O)c1ccc(NC(=O)CCCN2C(=O)C(c3ccccc3)Oc3cccnc32)cc1 (configuration not stated),inactive,
Cc1cc(N2C(=O)C(=O)/C(=C(/O)c3ccc(Cl)cc3)C2c2cccc(Br)c2)no1 (configuration not stated),inconclusive: -52%,
Cc1ccc(/C=N/NC(=O)c2cc(-c3ccc(C)o3)[nH]n2)cc1,inconclusive: 71.1%,
O=C(NCCCN1CCCC1=O)c1c(O)nc2sccn2c1=O,inconclusive: 29.7%,
CC(=O)CCc1ccc(OCC(O)CNC2CCCc3ccccc32)cc1 (configuration not stated),inconclusive: 18.5%,
O=C(NCCCN1CCN(c2ccc(F)cc2)CC1)c1cccc(N2CCCC2=O)c1,inconclusive: 45.2%,
N#Cc1ccc(-c2ccccc2)nc1SCCN1CCOCC1,,"inconclusive: 1.3 µM [activator, full curve]"

SMILES,"lipid storage change, negative = inhibition",Potency
O=C(CCC(=O)N(CC(=O)NC1CCCC1)Cc1ccccc1Cl)Nc1nccs1,,"inconclusive: 9.2 µM [activator, partial curve, poor fit]"
CC(=O)N1CCc2ccc(S(=O)(=O)N3CCc4ccccc43)cc21,,"inconclusive: 4.11 µM [falling, single point]"
COCc1cc(=O)[nH]c(Nc2nc3ccccc3o2)n1,inconclusive: 0.818%,
CCOc1cccc2sc(=NC(=O)c3ccc(S(=O)(=O)N4CCOCC4)cc3)n(C)c12,inconclusive: -16.4%,
CCOC(=O)c1cc(-c2cc3ccccc3o2)n[nH]1,inconclusive: 46.8%,
C/C(CC(=O)NC1CCCC1)=N\NC(=O)Cc1csc(N)n1,inconclusive: -5.04%,
CCCn1c(N2CCN(C(=O)Nc3ccccc3)CC2)nc2ccccc21,inconclusive: -15.1%,
Cc1ccc(S(=O)(=O)/N=C2/NC(=O)/C(=C/c3ccncc3)S2)cc1,inconclusive: 10.6%,
Cc1cc(C(=O)N(C)CC(=O)Nc2ccc(F)c(F)c2F)no1,inconclusive: 12%,
NS(=O)(=O)c1ccc(NCc2ccccc2OCc2ccc(F)cc2)cc1,inconclusive: -45.2%,
COCc1cc(C)nc2sc(C(=O)Nc3nccs3)c(N)c12,inconclusive: 42.2%,
Cc1ccc(C(=O)NC(=S)NCc2ccccc2)cc1,inconclusive: 204%,
CCCn1c(NC(=O)c2ccc([N+](=O)[O-])o2)nc2ccccc21,,active: 6.51 µM
COc1ccc(CCNC(=O)COC(=O)c2cccs2)cc1,inconclusive,
COC(=O)[C@@H](NC(=O)c1cc(COc2cncc(Cl)c2)on1)c1ccccc1,inconclusive: 50.5%,
CN1C2C(Br)CCCCN2c2ccc(F)cc2S1(=O)=O (configuration not stated),,"inconclusive: 29.1 µM [falling, single point]"
CN1C(=O)C(c2nnc(Nc3cccc4ccccc34)s2)C2CC1(C)Oc1ccccc12 (configuration not stated),inconclusive: 7.33%,
COC(=O)C1(CC2CC(c3ccc(Cl)cc3)=NO2)CCN(C(=O)OC(C)(C)C)CC1 (configuration not stated),,"inconclusive: 6.51 µM [falling, single point]"
Cc1cc2ccccn2c1C(=O)c1ccccc1F,,"inconclusive: 0.291 µM [falling, full curve, poor fit]"
Fc1ccc2nc(-c3ccccc3)nc(SCc3nnc(-c4ccccc4)o3)c2c1,inconclusive: 15.6%,
CSC(=NC#N)N1CCN(c2ccccn2)CC1,inconclusive: -16.5%,
CCN(CC)Cc1cc(C(=O)O)c(-c2ccccc2)o1,,"inconclusive: 0.0651 µM [falling, full curve, poor fit]"
O=C(NCc1cccs1)C1CCCN1C(=O)Nc1ccccc1 (configuration not stated),inconclusive: -19.3%,
COc1cc(CNCCCSc2nnnn2C)cc(Br)c1OC,inconclusive: 3.08%,
CCC(c1nnc(SCc2nc3ccccc3s2)n1Cc1ccccc1)N(C)C (configuration not stated),,"inconclusive: 4.61 µM [activator, single point]"

# 4 of the compounds above, as tab-separated lines:
SMILES	lipid storage change, negative = inhibition	Potency
COC(=O)[C@@H](NC(=O)c1cc(COc2cncc(Cl)c2)on1)c1ccccc1	inconclusive: 50.5%	
CN1C2C(Br)CCCCN2c2ccc(F)cc2S1(=O)=O (configuration not stated)		inconclusive: 29.1 µM [falling, single point]
CN1C(=O)C(c2nnc(Nc3cccc4ccccc34)s2)C2CC1(C)Oc1ccccc12 (configuration not stated)	inconclusive: 7.33%	
COC(=O)C1(CC2CC(c3ccc(Cl)cc3)=NO2)CCN(C(=O)OC(C)(C)C)CC1 (configuration not stated)		inconclusive: 6.51 µM [falling, single point]
